Data published in patent publication US20030166623A1.
These are yes or no findings as the source states them, for the method shown. Binding seen in cells or lysates may run through a third protein. Some binding calls cover weakened binding; strength is not graded here.

Amino acid sequences for entries named in this document (tags omitted). Residues count along the entry.
UniProt P03372, residues 282-595: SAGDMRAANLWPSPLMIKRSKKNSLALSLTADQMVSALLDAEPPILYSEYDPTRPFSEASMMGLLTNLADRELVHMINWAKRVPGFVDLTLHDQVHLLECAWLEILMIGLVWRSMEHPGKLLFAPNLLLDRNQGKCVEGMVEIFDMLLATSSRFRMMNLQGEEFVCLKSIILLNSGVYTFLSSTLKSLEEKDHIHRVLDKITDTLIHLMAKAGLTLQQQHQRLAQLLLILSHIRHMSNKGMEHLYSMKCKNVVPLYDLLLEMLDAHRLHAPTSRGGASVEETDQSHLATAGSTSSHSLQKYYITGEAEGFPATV
GST-ARDBD+LBD (androgen receptor 505-919) (P10275, residues 505-919): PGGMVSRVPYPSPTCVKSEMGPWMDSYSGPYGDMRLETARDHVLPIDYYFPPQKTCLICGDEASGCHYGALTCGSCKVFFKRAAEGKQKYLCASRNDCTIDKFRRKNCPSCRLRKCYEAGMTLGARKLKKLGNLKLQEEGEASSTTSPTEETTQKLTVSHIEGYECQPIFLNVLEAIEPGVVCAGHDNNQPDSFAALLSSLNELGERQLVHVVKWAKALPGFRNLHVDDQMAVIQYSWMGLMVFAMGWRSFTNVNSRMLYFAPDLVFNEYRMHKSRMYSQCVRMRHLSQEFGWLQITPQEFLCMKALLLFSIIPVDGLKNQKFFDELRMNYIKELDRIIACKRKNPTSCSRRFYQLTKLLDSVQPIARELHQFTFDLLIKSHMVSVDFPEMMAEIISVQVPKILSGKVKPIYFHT
GST-ARDBD (androgen receptor 505-635) (P10275, residues 505-635): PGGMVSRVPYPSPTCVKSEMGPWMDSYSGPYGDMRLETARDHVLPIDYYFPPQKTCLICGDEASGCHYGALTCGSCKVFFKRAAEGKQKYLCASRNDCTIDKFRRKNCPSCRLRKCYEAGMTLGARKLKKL
GST-ARZnf (androgen receptor zinc fingers, 553-635) (P10275, residues 553-635): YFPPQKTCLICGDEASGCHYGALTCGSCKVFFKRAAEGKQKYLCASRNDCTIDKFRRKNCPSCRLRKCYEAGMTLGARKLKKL
GST-ARtruncLBD (androgen receptor truncated LBD, 634-804) (P10275, residues 634-804): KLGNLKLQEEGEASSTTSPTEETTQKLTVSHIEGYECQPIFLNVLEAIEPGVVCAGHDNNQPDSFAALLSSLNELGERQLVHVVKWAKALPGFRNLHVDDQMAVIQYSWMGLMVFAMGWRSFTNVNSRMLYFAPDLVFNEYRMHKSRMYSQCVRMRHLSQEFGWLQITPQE
GST-AR3′H (androgen receptor 3′ hinge, 634-668) (P10275, residues 634-668): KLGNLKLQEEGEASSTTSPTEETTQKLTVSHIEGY

Columns and labels:
[1] = target: GST-ERHBD (estrogen receptor hormone binding domain fusion protein) (UniProt P03372); test: GST pulldown of 35S-labeled PAKSI, autoradiogram
[2] = target: GST-ARtruncLBD (androgen receptor truncated LBD, 634-804) (UniProt P10275); test: GST pulldown of 35S-labeled PAKSI, autoradiogram
[3] = target: GST-ARDBD (androgen receptor 505-635) (UniProt P10275); test: GST pulldown of 35S-labeled PAKSI, autoradiogram
[4] = target: GST-ERHBD (estrogen receptor hormone binding domain fusion protein) (UniProt P03372); test: GST pulldown of 35S-labeled PAKSI, with or without estradiol or tamoxifen
[5] = target: GST-ARtruncLBD (androgen receptor truncated LBD, 634-804) (UniProt P10275); test: GST pulldown of 35S-labeled PAKSI, with or without DHT
[6] = target: GST-ARDBD+LBD (androgen receptor 505-919) (UniProt P10275); test: as above
[7] = target: GST-ARDBD (androgen receptor 505-635) (UniProt P10275); test: as above
[8] = target: GST-AR3′H (androgen receptor 3′ hinge, 634-668) (UniProt P10275); test: as above
[9] = target: GST-ARZnf (androgen receptor zinc fingers, 553-635) (UniProt P10275); test: as above

- binding [1]: binds
- binding [2]: binds
- binding [3]: binds
- binding [4]: binds
- binding [5]: binds
- binding [6]: binds
- binding [7]: binds
- binding [8]: binds
- binding [9]: binds
B1: 35S-labeled PAKSI (enzyme)
chain: MFRKKKKKRPEISAPQNFQHRVHTSFDPKEGKFVGLPPQWQNILDTLRRPKPVVDPSRITRVQLQPMKTVVRGSAMPVDGYISGLLNDIQKLSVISSNTLRGRSPTSRRRAQSLGLLGDEHWATDPDMYLQSPQSERTDPHGLYLSCNGGTPAGHKQMPWPEPQSPRVLPNGLAAKAQSLGPAEFQGASQRCLQLGACLQSSPPGASPPTGTNRHGMKAAKHGSEEARPQSCLVGSATGRPGGEGSPSPKTRESSLKRRLFRSMFLSTAATAPPSSSKPGPPPQSKPNSSFRPPQKDNPPSLVAKAQSLPSDQPVGTFSPLTTSDTSSPQKSLRTAPATGQLPGRSSPAGSPRTWHAQISTSNLYLPQDPTVAKGALAGEDTGVVTHEQFKAALRMVVDQGDPRLLLDSYVKIGEGSTGIVCLAREKHSGRQVAVKMMDLRKQQRRELLFNEVVIMRDYQHFNVVEMYKNYLVGEELWVLMEFLQGGALTDIVSQVRLNEEQIATVCEAVLQALAYLHAQGVIHRDIKSDSILLTLDGRVKLSDFGFCAQISKDVPKRKSLVGTPYWMAPEVISRSLYATEVDIWSLGIMVIEMVDGEPPYFSDSPVQAMKRLRDSPPPKLKNSHKVSPVLRDFLERMLVRDPQERATAQELLDHPFLLQTGLPECLVPLIQLYRKQTSTC
modifications: 35S-labeled
